The supplement of paper PMC12067093, “Discovery and optimisation of a covalent ligand for TRIM25 and its application to targeted protein ubiquitination” (Chemical Science, 2025)
This is one part of the list.

Chains of the proteins cited; added tags and fusions are not shown. Lines headed by an entry give the natural chain unless they say otherwise; changes in a name come on top.
UniProt Q8N3U4: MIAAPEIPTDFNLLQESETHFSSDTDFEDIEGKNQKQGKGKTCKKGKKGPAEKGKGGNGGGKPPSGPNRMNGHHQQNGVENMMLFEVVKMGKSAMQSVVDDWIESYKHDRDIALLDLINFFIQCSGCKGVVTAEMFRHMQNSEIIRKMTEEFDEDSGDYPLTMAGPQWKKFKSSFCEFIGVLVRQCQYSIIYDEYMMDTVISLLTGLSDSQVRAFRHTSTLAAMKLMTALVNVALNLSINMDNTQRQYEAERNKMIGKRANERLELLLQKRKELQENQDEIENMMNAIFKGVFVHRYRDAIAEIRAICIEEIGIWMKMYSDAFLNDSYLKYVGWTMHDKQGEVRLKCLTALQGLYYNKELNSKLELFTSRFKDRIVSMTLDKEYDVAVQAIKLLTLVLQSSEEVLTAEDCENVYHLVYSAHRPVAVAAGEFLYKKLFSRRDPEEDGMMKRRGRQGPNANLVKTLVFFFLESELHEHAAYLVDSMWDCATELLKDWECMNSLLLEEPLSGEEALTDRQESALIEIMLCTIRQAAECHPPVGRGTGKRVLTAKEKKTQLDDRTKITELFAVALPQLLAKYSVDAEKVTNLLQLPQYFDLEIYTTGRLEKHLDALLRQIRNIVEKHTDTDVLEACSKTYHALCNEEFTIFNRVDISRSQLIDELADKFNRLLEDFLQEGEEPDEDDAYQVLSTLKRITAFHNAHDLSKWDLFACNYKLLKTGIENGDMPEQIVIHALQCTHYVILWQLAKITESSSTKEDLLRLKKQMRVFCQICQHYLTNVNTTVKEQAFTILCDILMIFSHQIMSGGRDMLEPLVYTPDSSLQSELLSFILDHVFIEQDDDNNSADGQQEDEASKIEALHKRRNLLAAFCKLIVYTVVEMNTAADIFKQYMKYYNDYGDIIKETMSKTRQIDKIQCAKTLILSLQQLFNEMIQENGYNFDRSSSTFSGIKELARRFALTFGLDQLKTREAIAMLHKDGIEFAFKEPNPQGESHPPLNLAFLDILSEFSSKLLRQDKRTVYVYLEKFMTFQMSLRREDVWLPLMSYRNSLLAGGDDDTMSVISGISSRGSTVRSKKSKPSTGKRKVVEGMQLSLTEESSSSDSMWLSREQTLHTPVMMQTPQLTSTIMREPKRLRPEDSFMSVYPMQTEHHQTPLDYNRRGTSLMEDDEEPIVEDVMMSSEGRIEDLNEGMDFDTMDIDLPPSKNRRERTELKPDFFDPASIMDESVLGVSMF
UniProt O95425, whole entry, looked up: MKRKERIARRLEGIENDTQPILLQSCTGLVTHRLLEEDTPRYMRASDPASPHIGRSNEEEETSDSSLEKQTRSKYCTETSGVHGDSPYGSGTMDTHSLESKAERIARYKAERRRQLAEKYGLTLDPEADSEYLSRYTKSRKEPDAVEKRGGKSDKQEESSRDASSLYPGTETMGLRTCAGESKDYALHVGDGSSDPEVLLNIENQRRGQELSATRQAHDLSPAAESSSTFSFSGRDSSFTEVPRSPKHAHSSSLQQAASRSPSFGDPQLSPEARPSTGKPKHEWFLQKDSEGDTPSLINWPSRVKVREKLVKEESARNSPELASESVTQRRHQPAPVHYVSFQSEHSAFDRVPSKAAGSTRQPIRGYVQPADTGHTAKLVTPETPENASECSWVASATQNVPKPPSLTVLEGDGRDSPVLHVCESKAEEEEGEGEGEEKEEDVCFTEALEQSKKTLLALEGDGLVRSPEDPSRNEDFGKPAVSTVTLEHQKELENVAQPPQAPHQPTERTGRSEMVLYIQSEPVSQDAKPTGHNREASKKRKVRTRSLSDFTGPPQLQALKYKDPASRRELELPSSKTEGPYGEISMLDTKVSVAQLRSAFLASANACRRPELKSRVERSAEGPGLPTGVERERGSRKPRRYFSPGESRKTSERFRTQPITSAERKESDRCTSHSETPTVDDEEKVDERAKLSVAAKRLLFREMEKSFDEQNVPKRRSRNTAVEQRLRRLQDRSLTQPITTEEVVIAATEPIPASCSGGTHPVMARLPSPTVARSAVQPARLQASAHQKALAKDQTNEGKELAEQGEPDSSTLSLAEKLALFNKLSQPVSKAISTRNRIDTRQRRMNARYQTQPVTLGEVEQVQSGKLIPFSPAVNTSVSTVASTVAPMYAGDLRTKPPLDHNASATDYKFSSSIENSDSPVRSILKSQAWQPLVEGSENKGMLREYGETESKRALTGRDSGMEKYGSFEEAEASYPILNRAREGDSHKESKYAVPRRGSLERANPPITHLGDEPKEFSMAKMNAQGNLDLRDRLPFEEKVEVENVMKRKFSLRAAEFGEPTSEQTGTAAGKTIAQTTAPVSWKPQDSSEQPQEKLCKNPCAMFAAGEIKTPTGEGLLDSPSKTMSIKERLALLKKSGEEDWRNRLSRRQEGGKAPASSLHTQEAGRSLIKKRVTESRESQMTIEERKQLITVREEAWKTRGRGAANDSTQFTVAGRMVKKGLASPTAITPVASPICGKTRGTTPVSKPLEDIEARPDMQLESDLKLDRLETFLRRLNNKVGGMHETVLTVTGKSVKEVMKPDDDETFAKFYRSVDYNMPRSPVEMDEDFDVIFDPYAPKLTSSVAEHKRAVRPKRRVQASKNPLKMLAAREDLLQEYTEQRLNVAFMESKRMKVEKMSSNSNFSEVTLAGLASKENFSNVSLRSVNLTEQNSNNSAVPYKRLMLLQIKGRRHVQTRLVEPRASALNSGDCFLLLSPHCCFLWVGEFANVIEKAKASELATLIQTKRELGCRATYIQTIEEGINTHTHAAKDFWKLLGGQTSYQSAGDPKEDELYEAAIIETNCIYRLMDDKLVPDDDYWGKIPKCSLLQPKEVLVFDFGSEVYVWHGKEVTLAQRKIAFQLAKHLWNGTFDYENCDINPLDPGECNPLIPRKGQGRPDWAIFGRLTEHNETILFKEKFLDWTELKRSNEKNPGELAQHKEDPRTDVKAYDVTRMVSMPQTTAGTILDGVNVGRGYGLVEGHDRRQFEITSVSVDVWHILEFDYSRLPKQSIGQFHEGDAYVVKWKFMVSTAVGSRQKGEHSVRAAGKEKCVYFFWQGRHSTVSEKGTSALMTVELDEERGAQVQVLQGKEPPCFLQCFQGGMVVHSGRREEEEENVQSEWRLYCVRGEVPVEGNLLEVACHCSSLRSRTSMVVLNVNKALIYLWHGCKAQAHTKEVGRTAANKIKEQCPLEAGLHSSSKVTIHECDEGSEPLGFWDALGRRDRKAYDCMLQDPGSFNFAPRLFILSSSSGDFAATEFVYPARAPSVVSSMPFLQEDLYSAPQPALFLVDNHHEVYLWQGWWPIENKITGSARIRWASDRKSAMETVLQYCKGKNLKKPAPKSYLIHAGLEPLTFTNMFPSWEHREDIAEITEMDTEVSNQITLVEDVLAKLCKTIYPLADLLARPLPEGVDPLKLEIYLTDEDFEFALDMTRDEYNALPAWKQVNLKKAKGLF
UniProt Q13242, whole entry, looked up: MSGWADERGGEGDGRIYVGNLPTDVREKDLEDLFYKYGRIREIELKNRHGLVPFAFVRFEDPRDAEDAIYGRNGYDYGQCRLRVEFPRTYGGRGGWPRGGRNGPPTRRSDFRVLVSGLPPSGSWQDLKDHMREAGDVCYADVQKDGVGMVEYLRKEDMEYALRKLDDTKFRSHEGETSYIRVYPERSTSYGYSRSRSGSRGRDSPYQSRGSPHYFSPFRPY
UniProt Q9Y5B9, whole entry, looked up: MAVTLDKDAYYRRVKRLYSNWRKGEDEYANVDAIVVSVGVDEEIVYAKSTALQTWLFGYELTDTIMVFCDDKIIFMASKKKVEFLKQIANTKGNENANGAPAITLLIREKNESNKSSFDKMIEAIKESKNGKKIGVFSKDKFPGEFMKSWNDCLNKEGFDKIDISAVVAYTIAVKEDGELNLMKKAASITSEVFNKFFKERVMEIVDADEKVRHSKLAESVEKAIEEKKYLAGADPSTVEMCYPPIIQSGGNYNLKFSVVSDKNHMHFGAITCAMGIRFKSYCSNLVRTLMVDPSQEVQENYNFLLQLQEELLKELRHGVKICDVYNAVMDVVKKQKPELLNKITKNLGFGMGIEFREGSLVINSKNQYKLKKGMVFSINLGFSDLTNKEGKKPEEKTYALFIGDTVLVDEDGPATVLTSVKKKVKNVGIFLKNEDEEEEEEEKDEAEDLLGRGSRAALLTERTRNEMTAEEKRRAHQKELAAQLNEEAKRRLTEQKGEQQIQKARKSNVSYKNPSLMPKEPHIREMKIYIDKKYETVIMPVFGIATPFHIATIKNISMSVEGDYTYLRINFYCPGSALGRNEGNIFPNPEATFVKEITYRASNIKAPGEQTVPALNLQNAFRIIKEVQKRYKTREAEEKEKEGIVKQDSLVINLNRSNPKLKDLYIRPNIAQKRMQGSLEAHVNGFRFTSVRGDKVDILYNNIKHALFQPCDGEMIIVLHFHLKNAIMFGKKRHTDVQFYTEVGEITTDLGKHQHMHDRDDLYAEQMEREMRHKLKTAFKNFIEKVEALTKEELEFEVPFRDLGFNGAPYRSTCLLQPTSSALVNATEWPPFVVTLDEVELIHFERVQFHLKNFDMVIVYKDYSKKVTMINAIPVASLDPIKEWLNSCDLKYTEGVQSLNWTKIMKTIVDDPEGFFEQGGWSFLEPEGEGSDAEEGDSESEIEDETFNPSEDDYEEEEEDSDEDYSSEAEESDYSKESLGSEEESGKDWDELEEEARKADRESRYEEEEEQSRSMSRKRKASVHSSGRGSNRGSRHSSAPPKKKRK
UniProt P52630: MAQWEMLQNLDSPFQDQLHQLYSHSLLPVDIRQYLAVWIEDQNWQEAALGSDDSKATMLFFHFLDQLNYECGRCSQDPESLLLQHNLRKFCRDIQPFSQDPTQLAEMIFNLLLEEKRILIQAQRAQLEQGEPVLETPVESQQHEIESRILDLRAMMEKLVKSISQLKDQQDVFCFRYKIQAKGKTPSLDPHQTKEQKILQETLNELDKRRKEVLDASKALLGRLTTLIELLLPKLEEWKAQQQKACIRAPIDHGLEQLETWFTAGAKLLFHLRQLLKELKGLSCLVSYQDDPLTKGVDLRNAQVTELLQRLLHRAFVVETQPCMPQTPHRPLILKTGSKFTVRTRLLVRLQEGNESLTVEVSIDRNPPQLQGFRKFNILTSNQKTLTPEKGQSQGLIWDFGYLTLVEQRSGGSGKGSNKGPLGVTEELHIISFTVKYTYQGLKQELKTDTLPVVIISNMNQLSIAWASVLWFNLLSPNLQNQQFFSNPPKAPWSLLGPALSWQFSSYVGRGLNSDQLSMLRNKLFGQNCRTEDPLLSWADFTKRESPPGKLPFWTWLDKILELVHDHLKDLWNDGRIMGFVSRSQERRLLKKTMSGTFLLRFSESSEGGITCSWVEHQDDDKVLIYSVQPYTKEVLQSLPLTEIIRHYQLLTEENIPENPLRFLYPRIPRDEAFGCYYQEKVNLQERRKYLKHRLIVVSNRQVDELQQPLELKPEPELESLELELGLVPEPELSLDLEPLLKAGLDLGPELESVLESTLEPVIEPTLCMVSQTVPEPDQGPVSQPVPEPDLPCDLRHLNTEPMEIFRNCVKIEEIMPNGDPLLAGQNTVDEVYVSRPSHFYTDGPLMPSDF
UniProt Q9Y2Z0: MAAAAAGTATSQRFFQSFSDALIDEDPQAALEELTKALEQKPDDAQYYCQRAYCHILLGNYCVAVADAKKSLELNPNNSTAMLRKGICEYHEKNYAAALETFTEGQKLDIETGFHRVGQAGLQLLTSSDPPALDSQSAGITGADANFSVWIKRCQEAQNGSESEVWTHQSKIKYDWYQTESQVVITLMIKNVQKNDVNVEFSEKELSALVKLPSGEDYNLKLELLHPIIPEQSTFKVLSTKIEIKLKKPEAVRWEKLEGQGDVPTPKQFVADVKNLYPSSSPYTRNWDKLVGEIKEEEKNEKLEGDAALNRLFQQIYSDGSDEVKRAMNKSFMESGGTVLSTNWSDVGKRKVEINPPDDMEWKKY
UniProt Q15527: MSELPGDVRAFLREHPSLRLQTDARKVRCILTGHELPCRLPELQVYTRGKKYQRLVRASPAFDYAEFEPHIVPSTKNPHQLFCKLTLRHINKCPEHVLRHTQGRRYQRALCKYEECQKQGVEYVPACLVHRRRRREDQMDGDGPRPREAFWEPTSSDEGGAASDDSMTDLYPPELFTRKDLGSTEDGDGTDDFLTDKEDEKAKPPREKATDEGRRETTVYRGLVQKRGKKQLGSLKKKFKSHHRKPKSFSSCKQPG
UniProt Q9UNE7: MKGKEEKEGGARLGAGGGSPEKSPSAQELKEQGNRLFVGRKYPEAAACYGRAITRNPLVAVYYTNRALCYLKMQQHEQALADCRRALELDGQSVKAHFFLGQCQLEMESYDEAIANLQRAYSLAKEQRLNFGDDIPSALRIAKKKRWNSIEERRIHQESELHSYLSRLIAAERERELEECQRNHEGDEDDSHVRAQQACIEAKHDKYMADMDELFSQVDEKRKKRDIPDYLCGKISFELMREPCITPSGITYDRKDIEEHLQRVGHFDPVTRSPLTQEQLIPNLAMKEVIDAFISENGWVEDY

Compound: Cc1cc(ccc1-c1ccccc1)C(=O)N1CCCN(CC1)C(=O)CCl [compound 10]
Test: probe-labelled cysteine peptide fold change vs DMSO (competition) (log2 fold change); higher = less target engagement (more negative = stronger competition)
Conditions: THP-1, incubation time: 4 h
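Further: competitive profiling in live THP-1 cells: cysteine peptides tagged with an iodoacetamide desthiobiotin (IA-DTB) probe, intensity after compound treatment relative to DMSO-treated cells.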

Target | probe-labelled cysteine peptide fold change (10 µM) | probe-labelled cysteine peptide fold change (50 µM)
STK11IP_Q8N1F8_707+710_TESPAVCPNCGSDHVVLLAVSR (UniProt Q8N1F8) | 0.0186 | 0.166
STEAP3_Q658P3_140_ESNAEYLASLFPTCTVVK (UniProt Q658P3) | -0.0165 | -0.192
STAT6_P42226_272_TLVTSCFLVEK (UniProt P42226) | 0.00513 | 0.0177
SUN2_Q9UH99_705_ILTNWGHPEYTCIYR (UniProt Q9UH99) | 0.195 | 0.345
SWAP70_Q9UH65_273_CLFLVK (UniProt Q9UH65) | -0.0562 | -0.234
SYMPK_Q92797_578_AVACSGAAQVR (UniProt Q92797) | -0.258 | -0.379
SSSCA1_O60232_73_IYCVACQELDSDVDK (UniProt O60232) | -0.0172 | 0.273
STAG1_Q8WVM7_531_QESALIELMVCTIR (UniProt Q8WVM7) | 0.212 | 0.416
STAT1_P42224_324_QPCMPTHPQRPLVLK (UniProt P42224) | -0.202 | 0.136
STAG2_Q8N3U4_711_WDLFACNYK (UniProt Q8N3U4) | 0.155 | 0.204
SVIL_O95425_1903_GEVPVEGNLLEVACHCSSLR (UniProt O95425) | 0.0682 | -0.163
SWAP70_Q9UH65_94_MCWTLCVK (UniProt Q9UH65) | 0.0797 | -0.302
SRSF9_Q13242_138_EAGDVCYADVQK (UniProt Q13242) | 0.0189 | -0.152
SUPT16H_Q9Y5B9_574_INFYCPGSALGR (UniProt Q9Y5B9) | 0.00628 | 0.427
STK32C_Q86UX6_379_LHCDPTFELEEMILESRPLHK (UniProt Q86UX6) | -0.136 | -0.226
SSU72_Q9NP77_192_TFLHTVCFY (UniProt Q9NP77) | 0.151 | 0.0318
STX16_O14662_150_ACSEQEGR (UniProt O14662) | -0.0416 | -0.105
STXBP2_Q15833_45_ILSSCCK (UniProt Q15833) | 0.0482 | -0.576
STRBP_Q96SI9_142_YQVEQCVNEASIIIR (UniProt Q96SI9) | -0.212 | -0.298
SVIL_O95425_671_CTSHSETPTVDDEEK (UniProt O95425) | 0.141 | 0.153
ST14_Q9Y5Y6_567_VNVVTCTK (UniProt Q9Y5Y6) | -0.153 | -0.788
SRRT_Q9BXP5_421_TCSLFMR (UniProt Q9BXP5) | -0.138 | 0.153

Target | probe-labelled cysteine peptide fold change (10 µM) | probe-labelled cysteine peptide fold change (50 µM)
SSH3_Q8TE77_413_AQGTHVLVHCK (UniProt Q8TE77) | 0.153 | 0.0646
SUPT6H_Q7KZ85_1435_YYQDCSGGDRK (UniProt Q7KZ85) | 0.014 | 0.117
STARD4_Q96DR4_75_AQGVIDDLVYSIIDHIRPGPCR (UniProt Q96DR4) | 0.151 | 0.545
SUCLA2_Q9P2R7_384_CDVIAQGIVMAVK (UniProt Q9P2R7) | 0.0333 | 0.284
STAT2_P52630_676_DEAFGCYYQEK (UniProt P52630) | -0.0339 | 0.128
STX7_O15400_28_ITQCSVEIQR (UniProt O15400) | 0.218 | 0.16
SRSF10_O75494-3_167_SHSDNDRPNCSWNTQYSSAYYTSR (UniProt O75494) | -0.337 | -0.557
STAG2_Q8N3U4_632_HTDTDVLEACSK (UniProt Q8N3U4) | 0.104 | 0.3
SRRM2_Q9UQ35_70_CLELEEMMEEQGYEEQQIQEK (UniProt Q9UQ35) | 0.288 | 0.146
SSRP1_Q08945_343_ITVPGNFQGHSGAQCITCSYK (UniProt Q08945) | -0.0176 | 0.28
STIP1_P31948_417+420_DCEECIQLEPTFIK (UniProt P31948) | 0.874 | -0.0811
STAM_Q92783_76_DPHVAMQALTLLGACVSNCGK (UniProt Q92783) | 0.0253 | 0.216
SYK_P43405_89+101_THASPADLCHYHSQESDGLVCLLK (UniProt P43405) | -0.0638 | -0.0651
STK10_O94804_138_GLTEPQIQVVCR (UniProt O94804) | 0.307 | 0.329
STRAP_Q9Y3F4_305_CVLPEEDSGELAK (UniProt Q9Y3F4) | 0.107 | 0.318
SSBP3_Q9BWW4_80_DTCEHSSEAK (UniProt Q9BWW4) | -0.0103 | -0.251
SYK_P43405_593+597_MGCPAGCPR (UniProt P43405) | 0.00642 | -0.398
SUGT1_Q9Y2Z0_154_CQEAQNGSESEVWTHQSK (UniProt Q9Y2Z0) | 0.159 | -0.0351
SRRT_Q9BXP5_412_DAAGLECKPR (UniProt Q9BXP5) | -0.171 | -0.219
STX17_P56962_290_LTSSCPDLPSQTDKK (UniProt P56962) | -0.37 | -0.613
STAT2_P52630_174_DQQDVFCFR (UniProt P52630) | 0.0734 | -0.0859
STK38_Q15208_9_AMTGSTPCSSMSNHTK (UniProt Q15208) | 0.103 | -0.865

Target | probe-labelled cysteine peptide fold change (10 µM) | probe-labelled cysteine peptide fold change (50 µM)
SYK_P43405_89_THASPADLCHYHSQESDGLVCLLK (UniProt P43405) | 0.0513 | -0.0785
SSB_P05455_245_FSGDLDDQTCREDLHILFSNHGEIK (UniProt P05455) | 0.0581 | -0.267
STXBP5_Q5T5C0_49_VLDGLTAGSSSASQQQQQQHPPGNREPEIQETLQSEHFQLCK (UniProt Q5T5C0) | -0.0678 | -0.0625
STK24_Q9Y6E0_375_RPFSQCLSTIISPLFAELK (UniProt Q9Y6E0) | -0.203 | -0.378
STT3A_P46977_637_EGSPVLLNCLMYK (UniProt P46977) | 0.013 | 0.318
SRSF9_Q13242_80_NGYDYGQCR (UniProt Q13242) | 0.159 | -0.00957
ST6GALNAC4_Q9H4F1_260_GRLDECQMYLAHEQAPR (UniProt Q9H4F1) | 0.203 | 0.0855
STAU2_Q9NUL3_11_TAMCLVNELAR (UniProt Q9NUL3) | 0.0183 | -0.03
SUPV3L1_Q8IYB8_251_SNAAGVPCDLVTGEER (UniProt Q8IYB8) | -0.0675 | 0.0989
SUPV3L1_Q8IYB8_587_KQPFVCSSLLQFAR (UniProt Q8IYB8) | -0.025 | 0.0326
SUPT4H1_P63272_16_ACLLCSLVK (UniProt P63272) | 0.0392 | -0.179
SRPRB_Q9Y5M8_73_AVLLVGLCDSGK (UniProt Q9Y5M8) | -0.644 | 0.426
SVIL_O95425_1966_VTIHECDEGSEPLGFWDALGR (UniProt O95425) | -0.0832 | 0.0363
SUPT4H1_P63272_36_TIDQFEYDGCDNCDAYLQMK (UniProt P63272) | 0.121 | -0.288
STAT2_P52630_74_CSQDPESLLLQHNLR (UniProt P52630) | 0.118 | -0.188
STRN4_Q9NRL3_337_CTVDGSPHELESR (UniProt Q9NRL3) | -0.216 | -0.349
SUPT16H_Q9Y5B9_323_ICDVYNAVMDVVK (UniProt Q9Y5B9) | 0.101 | 0.372
SUMF1_Q8NBK3_235_RLPTEAEWEYSCR (UniProt Q8NBK3) | -0.206 | -0.144
SUGT1_Q9Y2Z0_54_AYCHILLGNYCVAVADAKK (UniProt Q9Y2Z0) | -0.0997 | -0.395
SURF2_Q15527_116_YEECQK (UniProt Q15527) | 0.109 | 0.0154
STBD1_O95210_337_WEECSNR (UniProt O95210) | 0.153 | 0.353
STK26_Q9P289_392_SIAVAEAACPGITDK (UniProt Q9P289) | -0.0565 | -0.0937

Target | probe-labelled cysteine peptide fold change (10 µM) | probe-labelled cysteine peptide fold change (50 µM)
SUN1_O94901_403_QPLQGDSEAFPWHWMSGVEQQVASLSGQCHHHGENLR (UniProt O94901) | 0.209 | -0.282
SUCLG1_P53597_172+181_LIGPNCPGVINPGECK (UniProt P53597) | -0.119 | -0.113
SUPV3L1_Q8IYB8_175_QIFPVLDCKDDLRK (UniProt Q8IYB8) | -0.13 | -0.467
STUB1_Q9UNE7_244_EPCITPSGITYDR (UniProt Q9UNE7) | -0.0733 | -0.112
STUB1_Q9UNE7_83_MQQHEQALADCR (UniProt Q9UNE7) | 0.251 | 0.147
SSX2IP_Q9Y2D8_529_KPHSVSNGSPVCMSK (UniProt Q9Y2D8) | -0.304 | -0.849
ST14_Q9Y5Y6_550_SQQCNGKDDCGDGSDEASCPK (UniProt Q9Y5Y6) | 0.0415 | -0.658
STRIP1_Q5VSL9_769_HRLNDDWAYGNDLDARPWDFQAEECALR (UniProt Q5VSL9) | -0.318 | -0.857
SURF2_Q15527_93_CPEHVLR (UniProt Q15527) | 0.0015 | -0.0829
SUPT6H_Q7KZ85_1132_AELSCR (UniProt Q7KZ85) | 0.0623 | 0.00294
STAMBP_O95630_390_LTDHGLEEISSCR (UniProt O95630) | 0.057 | 0.235
STIP1_P31948_471_CMMAQYNR (UniProt P31948) | 0.271 | -0.0499
SSRP1_Q08945_207_ELQCLTPR (UniProt Q08945) | 0.0587 | 0.0918
STAMBP_O95630_282_GVETCGILCGK (UniProt O95630) | 0.163 | -0.0572
STAM2_O75886_85_IFHLEVCSR (UniProt O75886) | 0.085 | 0.212
STAT3_P40763_108_CLWEESR (UniProt P40763) | 0.0539 | -0.0138
STAM2_O75886_76_VPHVALQALTLLGACVANCGK (UniProt O75886) | -0.0779 | 0.0749
STAT3_P40763_426_ANCDASLIVTEELHLITFETEVYHQGLK (UniProt P40763) | 0.319 | 0.388
STRADA_Q7RTN6_107_INLEACSNEMVTFLQGELHVSK (UniProt Q7RTN6) | 0.391 | 0.345
